Laboratory results published in PubChem BioAssay AID1347075 (National Center for Advancing Translational Sciences (NCATS), 2019).
Hit rate of the full screen: of about 400,000 compounds, about 5,500 (1.4%) were called active. This list was built around the results that the source calls inconclusive (neither active nor inactive); the mix of calls is not that of the screen. Calls follow the shape of the dose curve; as a rule, active = well fitted cell-killing curve with a large enough effect; inconclusive = small, poorly fitted or top-dose-only effect, or effect the other way; inactive = flat fitted curve, though single readings scatter. A potency beside an inconclusive call is a rough fit, not a confirmed value.
% is scaled to controls: 0 for no effect and ±100 for the full control effect; potency is read from the fitted curve at half-maximal effect.

Assay: qHTS assay for MDR1-selective chemotherapeutics: Primary screen using the parental adenocarcinoma cell KB-3-1; also: nearly all actives have a fitted effect of over 60% in size
Settings: KB-3-1 viability, CellTiter-Glo ATP luminescence, 72 h; activity change, negative = cytotoxic: at 46.1 µM (top of the series)
In short: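 Parental KB-3-1 adenocarcinoma cells in phenol-red-free DMEM with 10% FBS were pin-treated with compounds at several concentrations, incubated 72 h at 37 °C, and viability read by CellTiter-Glo luminescence; concentration-effect curves were fitted after normalization.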
With `Cc1noc(C)c1COc1cccc(C(=O)OCCOc2ccc(F)cc2)c1` the Potency was inconclusive: 29.1 µM [cytotoxic, single point].
With `CCOC(=O)C(=CNc1ccc(NC2=NCC(C)S2)cc1)C(=O)OCC` (centres undefined) the Potency was inconclusive: 29.1 µM [rising, single point].
For `O=C(O)C(Cc1ccc(O)cc1)N1C(=O)c2ccccc2C1=O` (centres undefined), the activity change, negative = cytotoxic was inconclusive: -26.9%.
In the case of `Clc1ccc(CNc2ccc(CNc3ncn[nH]3)cc2)cc1`, the Potency was inconclusive: 25.9 µM [cytotoxic, single point].
For `COc1cc(Cl)c(NC(=O)CN(C)S(=O)(=O)c2ccc3c(c2)CCCC(=O)N3)c(OC)c1`, the Potency was inconclusive: 13 µM [cytotoxic, partial curve, poor fit].
In the case of `CCc1ccc(NC(=S)N(CCN(C)C)C(C)c2ccncc2)cc1` (centres undefined), the “activity change, negative = cytotoxic” value was inactive: -0.0977%.
For `O=C(NCc1ccc(F)c(F)c1)C1CCC(=O)N(CC2CCCCC2)C1` (centres undefined), the “activity change, negative = cytotoxic” value was inactive: 12.4%.
In the case of `COc1cc(C(=O)Nc2ccccc2C(=O)Nc2ccccn2)cc(OC)c1OC`, the Potency was active: 8.2 µM.
With `Cc1ccccc1-c1nc(CS(=O)(=O)CC(=O)NCc2ccc(F)cc2)c(C)o1` the Potency was inconclusive: 29.1 µM [cytotoxic, single point].
For `CN1CCC(n2[nH]c(-c3ccccc3)c(Cc3ccccc3)c2=O)CC1`, the Potency was inconclusive: 29.1 µM [cytotoxic, single point].
For `C/C(=N\Nc1ccc([N+](=O)[O-])cc1)c1ccc(O)cc1`, the “activity change, negative = cytotoxic” value was inactive: 3.88%.
In the case of `O=c1c2ccccc2sn1-c1cc(S(=O)(=O)N2CCOCC2)ccc1N1CCCCC1`, the “activity change, negative = cytotoxic” value was inactive: 0%.
For `CC(C)C(NC(=O)c1ccc(Br)cc1)C(=O)NC1=NCCS1` (centres undefined), the Potency was inconclusive: 8.2 µM [rising, partial curve, poor fit].
With `CC(C)(C)C(=O)Nc1ccc(C(=O)N/N=C/c2ccccc2OC(=O)c2ccccc2)cc1` the Potency was inconclusive: 16.4 µM [cytotoxic, partial curve, poor fit].
In the case of `CCCCN(C(=O)COC(=O)c1ccc(C=O)cc1)c1c(N)n(CCC)c(=O)[nH]c1=O`, the “activity change, negative = cytotoxic” value was inactive: 7.03%.
With `CC1CCCN(S(=O)(=O)c2cc(C(=O)NCc3ccccc3Cl)n(C)c2)C1` (centres undefined) the “activity change, negative = cytotoxic” value was inactive: -13.4%.
For `Cc1ccc2cc(CN(CCN(C)C)C(=S)Nc3ccccc3)c(=O)[nH]c2c1C`, the activity change, negative = cytotoxic was inconclusive: -2.57%.
In the case of `Cc1ccc(Cc2c(-c3ccc(Br)cc3)nc3cc(C)ccn23)cc1`, the Potency was inconclusive: 29.1 µM [cytotoxic, single point].
For `c1coc(CNc2ncnc3[nH]ncc23)c1`, the Potency was “inactive”.
With `CCCCCOC(=O)c1[nH]c2c(c1C)C(=O)CC(c1ccco1)C2` (centres undefined) the Potency was inconclusive: 0.259 µM [cytotoxic, full curve, poor fit].
In the case of `COc1cccc(CNc2ccc(N3CCC(C)CC3)cc2)c1OC`, the Potency was active: 20.6 µM.
For `COc1cc(OC)cc(C(=O)Nc2ccc(NC(=O)c3ccco3)c(Cl)c2)c1`, the Potency was inconclusive: 29.1 µM [cytotoxic, single point].
With `CC(=O)c1nn(-c2cccc(Br)c2)cc1C(=O)c1ccc2ccccc2c1` the Potency was inconclusive: 29.1 µM [cytotoxic, single point].
In the case of `Cc1ccc(C(=O)Nc2nc3c(s2)CCCC3)o1`, the Potency was inconclusive: 20.6 µM [cytotoxic, single point].
In the case of `COC(=O)c1ccc(NC(=O)CCN2CCN(c3ccccc3)CC2)cc1`, the “activity change, negative = cytotoxic” value was inactive: -11.4%.
In the case of `FC(F)(F)c1cnc(N2CCC(=NOCc3ccc(Cl)cc3)CC2)c(Cl)c1`, the Potency was inconclusive: 16.4 µM [cytotoxic, partial curve].
With `CCC(C)c1ccc(NC(=S)NCc2cccnc2)cc1` (centres undefined) the Potency was inconclusive: 23.1 µM [cytotoxic, single point].
For `Cc1cc(=O)[nH]c(N/N=C/c2c(C)nn(-c3ccccc3)c2Cl)n1`, the “activity change, negative = cytotoxic” value was inactive: 8.41%.
With `O=C(NCc1ccccc1)C1C(c2ccc3c(c2)OCO3)=Nc2ccccc2N1C(=O)c1ccccc1` (centres undefined) the Potency was inconclusive: 29.1 µM [cytotoxic, single point].
For `CSc1ccc(-c2nc3cnccn3c2Nc2ccc3c(c2)OCO3)cc1`, the Potency was inconclusive: 18.4 µM [cytotoxic, single point].
For `CCn1c(C)nc2cc(-c3nc4n(n3)Cc3ccccc3-4)ccc21`, the Potency was active: 5.8 µM.
With `CCCOc1ccc(Cc2c(Cl)nc(SC)nc2NC)cc1` the Potency was inconclusive: 5.17 µM [cytotoxic, partial curve, poor fit].
In the case of `Cc1nn(Cc2ccc(Cl)c(Cl)c2)c(C)c1NC(=O)c1cc(-c2ccco2)on1`, the Potency was inconclusive: 29.1 µM [cytotoxic, single point].
For `O=C(N/N=C/c1c[nH]c2ccccc12)c1[nH]c2ccc(Br)cc2c1-c1ccccc1`, the Potency was active: 1.64 µM.
In the case of `OCc1ccc2c(c1)c(-c1ccc3c(c1)OCCO3)c(-c1ccccc1)n2-c1ccccc1`, the Potency was inconclusive: 25.9 µM [cytotoxic, single point].
With `Cc1[nH]n2c(=O)cc(-c3ccc([N+](=O)[O-])cc3)nc2c1-c1ccccc1` the Potency was inconclusive: 20.6 µM [cytotoxic, single point].
With `CC1CCN(CCCNC(=O)c2ccc3c(=O)n(CCc4ccccc4)c(=O)[nH]c3c2)CC1` the Potency was inconclusive: 20.6 µM [cytotoxic, single point].
With `CCOC(=O)c1c(NC(=O)C(=O)N/N=C/c2ccccc2O)sc2c1CCCCC2` the Potency was inconclusive: 2.06 µM [cytotoxic, partial curve, poor fit].
For `CC(C)(C)CC(C)(C)NCC(O)COc1ccc2c(c1)CCC2` (centres undefined), the Potency was active: 20.6 µM.
With `Cc1ccc(S(=O)(=O)N2c3ccccc3OCC2c2ccccc2)cc1` (centres undefined) the Potency was inconclusive: 29.1 µM [cytotoxic, single point].
In the case of `COc1cc(OC)c(NC(=O)NCc2cccn2Cc2ccccc2)cc1Cl`, the “activity change, negative = cytotoxic” value was inactive: 0%.
In the case of `CCC1([N+](=O)[O-])COC(c2ccc(C(C)C)cc2)OC1` (centres undefined), the Potency was inconclusive: 29.1 µM [rising, single point].
For `Cc1ccc(F)cc1C(=O)N1CCCCC1c1cc(C(=O)Nc2ccc(F)c(Cl)c2)no1` (centres undefined), the Potency was inconclusive: 0.366 µM [cytotoxic, full curve, poor fit].
With `C=CCn1c(-c2cccnc2Cl)nc2cc(Cl)c(Cl)cc21` the “activity change, negative = cytotoxic” value was inactive: -23.1%.
In the case of `CCc1nccn1CCC(=O)NC1CCCc2c1cnn2-c1ccc(F)cc1F` (centres undefined), the Potency was inconclusive: 20.6 µM [cytotoxic, partial curve, poor fit].
In the case of `COCc1cc(C)nc(OCC(=O)N/N=C/c2cc(C)n(-c3c(C)cccc3C)c2C)c1C#N`, the Potency was inconclusive: 10.3 µM [cytotoxic, partial curve, poor fit].
In the case of `COc1ccc(CCNC(=O)c2ccc(Cl)c(S(=O)(=O)N3CCCCCC3)c2)cc1`, the Potency was inconclusive: 29.1 µM [cytotoxic, single point].
For `COc1ccc(Cl)cc1NC(=O)CN(C)C(=O)c1cc(-c2cccs2)nn1-c1ccccc1`, the Potency was active: 20.6 µM.
In the case of `Cc1ccc(N/C(N)=N/c2nc(CSc3nnc(C)s3)cc(=O)[nH]2)c(C)c1`, the Potency was active: 2.31 µM.
For `COC(=O)[C@H](Cc1ccccc1)N(Cc1ccccc1)S(=O)(=O)N(Cc1ccccc1)[C@@H](Cc1ccccc1)C(=O)OC`, the activity change, negative = cytotoxic was inconclusive: -50.3%.
With `COc1ccc(-c2noc(CCC(=O)NC3CCCC3)n2)cc1` the Potency was inconclusive: 23.1 µM [cytotoxic, single point].
With `Cc1c(-c2ccccc2)n(-c2ccccc2O)c2nc3c(c(=O)n(C)c(=O)n3C)n12` the Potency was inconclusive: 29.1 µM [cytotoxic, single point].
In the case of `CCCCC(=O)NNC(=S)NC(=O)C(c1ccccc1)c1ccccc1`, the Potency was inconclusive: 29.1 µM [cytotoxic, single point].
For `CC1CCN(S(=O)(=O)c2ccc(NC(=O)[C@@H]3CCCN3C(=O)c3cccs3)cc2)CC1`, the “activity change, negative = cytotoxic” value was inactive: -2.67%.
With `O=C(N/N=C/c1ccc(O)cc1)c1[nH]c2ccc(Br)cc2c1-c1ccccc1` the Potency was active: 7.31 µM.
For `CCCOc1ccc(C2=NC(c3ccc(F)cc3)=Nc3ccc(OC)cc3N2)cc1`, the “activity change, negative = cytotoxic” value was inactive: -2.5%.
For `COc1ccc(-c2cc(-c3ccccc3)nc(N)n2)c(O)c1`, the Potency was inconclusive: 29.1 µM [cytotoxic, single point].
With `COc1ccc(/C=N/NC(=O)c2ccc(CSc3nc(C)cc(C)n3)cc2)c(OC)c1OC` the Potency was inconclusive: 29.1 µM [cytotoxic, single point].
For `O=C(c1ccc2c(c1)N(Cc1ccccc1)C(=O)c1ccccc1S2=O)N1CCC(Cc2ccccc2)CC1` (centres undefined), the Potency was inconclusive: 29.1 µM [cytotoxic, single point].
For `Cc1ccc2c(c1)c(=O)c(S(=O)(=O)c1ccc(C)c(C)c1)cn2CC(=O)Nc1ccccc1`, the “activity change, negative = cytotoxic” value was inactive: -12.9%.
In the case of `COc1ccc(CNC(=O)c2cccc(-c3ccc(C)c4ccccc34)n2)cc1`, the Potency was inconclusive: 29.1 µM [cytotoxic, single point].
For `O=C(Oc1ccnc2cc(Cl)ccc12)N1CCCCCC1`, the “activity change, negative = cytotoxic” value was inactive: -2.82%.
In the case of `CCOC(=O)C1=CN(CC)S(=O)(=O)NC1CCc1ccccc1` (centres undefined), the “activity change, negative = cytotoxic” value was inactive: 0%.
With `CCCSc1nnc(NC(=O)Nc2ccccc2)s1` the Potency was inconclusive: 29.1 µM [cytotoxic, single point].
For `CS(=O)(=O)N(CC(=O)NCCSC1CCCCC1)c1ccccc1`, the “activity change, negative = cytotoxic” value was inactive: 1.99%.
For `COc1ccccc1N1CCN(C(=O)c2sc3nc(C)nc(N4CCN(c5ccccn5)CC4)c3c2C)CC1`, the Potency was inconclusive: 29.1 µM [cytotoxic, single point].
With `COc1ccc(NC(=O)NCC2CCN(Cc3ccccc3F)CC2)c(OC)c1` the “activity change, negative = cytotoxic” value was inactive: -0.77%.
In the case of `Cc1ccc(-n2c(=O)[nH]c3ncccc3c2=O)cc1`, the “activity change, negative = cytotoxic” value was inactive: -14.3%.
For `C#CCOCCOCCOCCNc1nc(N2CCN(C(=O)[C@H](CCCCN)n3cc(CN)nn3)CC2)nc(N2CCN(C(=O)[C@H](CO)n3cc([C@@H](N)C(C)C)nn3)CC2)n1`, the Potency was inconclusive: 3.66 µM [cytotoxic, full curve, poor fit].
